Assay results published in article PMC3631101.
Where a chain is given by its changes, count along the chain named. Results are given in words; binding and its absence hold for the method and conditions named. In cells and extracts the contact can be indirect. For some assays here: Binding calls can cover weak binding; strength is not graded here. Tags and fused reporters may be left off the sequences shown.

What was measured:
[1] = molecular target: T1, Ser358Ala HA–SIK2 adenovirally expressed in primary rat adipocytes (human) (UniProt Q9H0K1); assay: co-IP; anti-HA immunoprecipitates of HA–SIK2 blotted for endogenous 14-3-3; HEK-293 cells treated with forskolin, primary rat adipocytes with CL 316,243 (100 nM, 30 min)
T1 sequence: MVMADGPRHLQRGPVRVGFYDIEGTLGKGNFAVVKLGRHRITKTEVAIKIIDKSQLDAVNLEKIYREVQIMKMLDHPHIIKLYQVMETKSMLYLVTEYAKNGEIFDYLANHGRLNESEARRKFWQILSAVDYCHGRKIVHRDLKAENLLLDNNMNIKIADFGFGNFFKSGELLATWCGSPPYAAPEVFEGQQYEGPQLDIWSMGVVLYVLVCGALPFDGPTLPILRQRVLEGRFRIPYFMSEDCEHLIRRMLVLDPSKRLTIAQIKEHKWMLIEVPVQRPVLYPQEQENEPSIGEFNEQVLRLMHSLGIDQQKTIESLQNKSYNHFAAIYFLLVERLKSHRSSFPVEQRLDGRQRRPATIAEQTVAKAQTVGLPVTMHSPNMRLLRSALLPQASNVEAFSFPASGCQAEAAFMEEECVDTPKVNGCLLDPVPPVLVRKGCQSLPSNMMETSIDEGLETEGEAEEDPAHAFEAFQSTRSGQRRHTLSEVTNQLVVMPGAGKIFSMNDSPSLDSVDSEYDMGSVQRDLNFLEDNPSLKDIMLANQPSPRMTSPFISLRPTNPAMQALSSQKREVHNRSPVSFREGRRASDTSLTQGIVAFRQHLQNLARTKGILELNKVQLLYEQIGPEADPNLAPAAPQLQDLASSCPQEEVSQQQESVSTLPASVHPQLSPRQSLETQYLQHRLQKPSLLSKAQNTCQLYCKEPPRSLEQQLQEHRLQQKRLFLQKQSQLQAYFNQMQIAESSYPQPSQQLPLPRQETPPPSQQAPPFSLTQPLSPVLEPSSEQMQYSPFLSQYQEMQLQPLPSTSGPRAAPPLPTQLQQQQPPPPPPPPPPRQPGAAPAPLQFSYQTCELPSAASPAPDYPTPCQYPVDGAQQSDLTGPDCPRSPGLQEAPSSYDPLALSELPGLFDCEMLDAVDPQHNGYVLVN

[2] = molecular target: T2, Ser587Ala HA–SIK2 adenovirally expressed in primary rat adipocytes (human) (UniProt Q9H0K1); assay: as above
T2 sequence: T1 sequence with A358S, S587A

endogenous 14-3-3 of primary rat adipocytes
binding [1]: no binding | binding [2]: binds
